The test relates to Salmonella enterica serovar Typhimurium SL1344. Put plainly: normalized intracellular growth (luminescence, IQM-normalized) in RAW264.7 macrophages (fraction of plate interquartile mean); higher = more bacterial growth (less inhibition). Particulars: 10 µM.

“And” between values parts separate entries of the source, which are not always exact repeats. Equal entries are not always repeated. ± gives the standard deviation of the averaged measurements. Whole data set: some 1,600 compounds, median “normalized intracellular growth (luminescence, IQM-normalized) in RAW264.7 macrophages” near 1, cut for the lowest 2% near 0.43. Some of the results follow.

Regarding `COc1c2ccoc2cc2oc(=O)ccc12`, the normalized intracellular growth worked out at 1.04 ± 0.051 (time point: T3 (3 h)) and 0.956 ± 0.19 (time point: Tfinal (~6 h)).

For `COC(=O)C1=C(C)NC(C)=C(C(=O)OCC(C)C)C1c1ccccc1[N+](=O)[O-]` (stereo not drawn), the normalized intracellular growth (time point: T3 (3 h)) was determined as 1.01 ± 0.11 and the normalized intracellular growth (time point: Tfinal (~6 h)) was 0.637 ± 0.23.

In the case of `COC(=O)C1=C(C)NC(C)=C(C(=O)OCCN(C)Cc2ccccc2)C1c1cccc([N+](=O)[O-])c1` (stereo not drawn), the normalized intracellular growth (time point: T3 (3 h)) came out at 1.01 ± 0.09 and the normalized intracellular growth (time point: Tfinal (~6 h)) is 0.929 ± 0.13.

Take `CN1CCN(c2c(F)cc3c(=O)c(C(=O)O)cn4c3c2SCC4)CC1`: the normalized intracellular growth runs as follows: (time point: T3 (3 h)) 0.982 ± 0.061; (time point: Tfinal (~6 h)) 0.095 ± 0.094.

On to `O=C(O)COCCN1CCN([C@H](c2ccccc2)c2ccc(Cl)cc2)CC1`, for which the normalized intracellular growth was 0.9958 ± 0.0086 (time point: T3 (3 h)) and 0.884 ± 0.058 (time point: Tfinal (~6 h)).

`Cc1cnc(C(=O)NCCc2ccc(S(=O)(=O)NC(=O)NC3CCCCC3)cc2)cn1` showed a normalized intracellular growth (time point: T3 (3 h)) of 1.12 ± 0.081 and a normalized intracellular growth (time point: Tfinal (~6 h)) of 0.798 ± 0.34.

For `O=C1[C@H](CC[C@H](O)c2ccc(F)cc2)[C@@H](c2ccc(O)cc2)N1c1ccc(F)cc1`, the normalized intracellular growth was 0.894 ± 0.034 (time point: T3 (3 h)) and 1 ± 0.26 (time point: Tfinal (~6 h)).

The compound `O=S(=O)(O)c1cc(I)c(O)c2ncccc12` came in with a normalized intracellular growth (time point: T3 (3 h)) of 0.944 ± 0.028 and a normalized intracellular growth (time point: Tfinal (~6 h)) of 0.957 ± 0.19.

Consider `CCC1NC(=O)c2cc(S(N)(=O)=O)c(Cl)cc2N1` (stereo not drawn), for which the normalized intracellular growth is 0.993 ± 0.04 (time point: T3 (3 h)) and 1.03 ± 0.16 (time point: Tfinal (~6 h)).

The compound `CC(O)(P(=O)(O)O)P(=O)(O)O` had a normalized intracellular growth (time point: T3 (3 h)) of 1.04 ± 0.056 and a normalized intracellular growth (time point: Tfinal (~6 h)) of 0.85 ± 0.23.

As to `CCN(CC)CCOc1ccc(C(=C(Cl)c2ccccc2)c2ccccc2)cc1`, the normalized intracellular growth (time point: T3 (3 h)) amounted to 0.97 ± 0.059 and the normalized intracellular growth (time point: Tfinal (~6 h)) was found to be 0.744 ± 0.041.

For `CCCCCOC(=O)Nc1nc(=O)n([C@@H]2O[C@H](C)[C@@H](O)[C@H]2O)cc1F`, the normalized intracellular growth was 0.864 ± 0.018 (time point: T3 (3 h)) and 0.799 ± 0.067 (time point: Tfinal (~6 h)).

For the compound `CCCCNc1ccc(C(=O)OCCN(C)C)cc1`, the normalized intracellular growth is, setting by setting: (time point: T3 (3 h)) 1.04 ± 0.075; (time point: Tfinal (~6 h)) 0.92 ± 0.047.

Compound `CN1CCOC(c2ccccc2)c2ccccc2C1` (stereo not drawn) returned a normalized intracellular growth (time point: T3 (3 h)) of 0.892 ± 0.067 and a normalized intracellular growth (time point: Tfinal (~6 h)) of 0.936 ± 0.031.

As to `CN1CCC(=C2c3ccccc3CCc3sccc32)CC1`, the normalized intracellular growth is 0.997 ± 0.065 (time point: T3 (3 h)) and 1.15 ± 0.2 (time point: Tfinal (~6 h)).

For `O=C1c2cccc(O)c2C(=O)c2c(O)cccc21`, the normalized intracellular growth is, setting by setting: (time point: T3 (3 h)) 1.05 ± 0.039; (time point: Tfinal (~6 h)) 1.02 ± 0.05.

On to `CCOC(N)=O`, for which the normalized intracellular growth was 1.06 ± 0.039 (time point: T3 (3 h)) and 0.715 ± 0.14 (time point: Tfinal (~6 h)).

`CC(C)NNC(=O)c1ccncc1`: the normalized intracellular growth stood at 1.05 ± 0.07 (time point: T3 (3 h)) and 0.891 ± 0.23 (time point: Tfinal (~6 h)).

`CSCC[C@H](NC(=O)[C@H](Cc1c[nH]c2ccccc12)NC(=O)CCNC(=O)OC(C)(C)C)C(=O)N[C@@H](CC(=O)O)C(=O)N[C@@H](Cc1ccccc1)C(N)=O` had a normalized intracellular growth (time point: T3 (3 h)) of 1 ± 0.04 and a normalized intracellular growth (time point: Tfinal (~6 h)) of 0.827 ± 0.23.

The compound `CCN(CC)CCNC(=O)c1cc(Br)c(N)cc1OC` registered a normalized intracellular growth (time point: T3 (3 h)) of 1.06 ± 0.055 and a normalized intracellular growth (time point: Tfinal (~6 h)) of 1.18 ± 0.045.

Regarding `OC(CCN1CCCCC1)(c1ccccc1)c1ccccc1`, the normalized intracellular growth reads like this: (time point: T3 (3 h)) 0.967 ± 0.046; (time point: Tfinal (~6 h)) 1.14 ± 0.09.

With `CCCCC(=O)N(Cc1ccc(-c2ccccc2-c2nnn[nH]2)cc1)[C@H](C(=O)O)C(C)C`, the normalized intracellular growth turned out to be 0.881 ± 0.033 (time point: T3 (3 h)) and 0.239 ± 0.016 (time point: Tfinal (~6 h)).

As to `C[C@H](CCC(=O)O)[C@H]1CC[C@H]2[C@@H]3C(=O)C[C@@H]4CC(=O)CC[C@]4(C)[C@H]3CC(=O)[C@]12C`, the normalized intracellular growth (time point: T3 (3 h)) is 1.02 and 1.03; the normalized intracellular growth (time point: Tfinal (~6 h)) is 0.89 and 0.937.

On to `CO[C@H]1C[C@H](O[C@@H]2/C(C)=C/C[C@@H]3C[C@@H](C[C@]4(CC[C@H](C)[C@@H](C5CCCCC5)O4)O3)OC(=O)[C@@H]3C=C(C)/C(=N/O)[C@H]4OC/C(=C\C=C\[C@@H]2C)[C@]43O)O[C@@H](C)[C@@H]1O`, for which the normalized intracellular growth reads like this: (time point: T3 (3 h)) 1.01 ± 0.064; (time point: Tfinal (~6 h)) 1.16 ± 0.094.

In turn, `CCOC(=O)C1=C(C)NC(C)=C(C(=O)OC)C1c1cccc(Cl)c1Cl` (stereo not drawn) had a normalized intracellular growth (time point: T3 (3 h)) of 0.889 ± 0.021 and a normalized intracellular growth (time point: Tfinal (~6 h)) of 1.02 ± 0.17.

`O=C1c2c(O)ccc(O)c2C(=O)c2c(NCCNCCO)ccc(NCCNCCO)c21`: the normalized intracellular growth came to 0.947 ± 0.051 (time point: T3 (3 h)) and 1.07 ± 0.24 (time point: Tfinal (~6 h)).

Take `O=C(NC(Cc1cc(=O)[nH]c2ccccc12)C(=O)O)c1ccc(Cl)cc1` (stereo not drawn): the normalized intracellular growth stood at 0.942 ± 0.038 (time point: T3 (3 h)) and 1.08 ± 0.085 (time point: Tfinal (~6 h)).

For `OC[C@H]1O[C@@H](O[C@H]2[C@H](O)[C@@H](O)C(O)O[C@@H]2CO)[C@H](O)[C@@H](O)[C@H]1O` (stereo partly drawn), the normalized intracellular growth was 1.05 ± 0.022 (time point: T3 (3 h)) and 1.04 ± 0.026 (time point: Tfinal (~6 h)).

For the compound `COC(=O)/C=C/C(=O)OC`, the normalized intracellular growth by setting is: (time point: T3 (3 h)) 0.935 ± 0.047; (time point: Tfinal (~6 h)) 0.937 ± 0.028.

On to `CC(C)(C)NC[C@H](O)COc1cccc2c1CCCC2=O`, for which the normalized intracellular growth reads like this: (time point: T3 (3 h)) 0.97 ± 0.046; (time point: Tfinal (~6 h)) 1.08 ± 0.088.

As to `C[N+](C)(C)CCOC(N)=O`, the normalized intracellular growth (time point: T3 (3 h)) is 1.05 ± 0.049 and the normalized intracellular growth (time point: Tfinal (~6 h)) is 1.25 ± 0.18.

As for `CN(C)CCc1c[nH]c2ccc(CS(=O)(=O)N3CCCC3)cc12`, the normalized intracellular growth reads like this: (time point: T3 (3 h)) 0.989 ± 0.027; (time point: Tfinal (~6 h)) 1.14 ± 0.15.

In turn, `O=C(O)CCC(=O)c1ccc(-c2ccccc2)cc1` gave a normalized intracellular growth (time point: T3 (3 h)) of 0.986 ± 0.022 and a normalized intracellular growth (time point: Tfinal (~6 h)) of 0.929 ± 0.033.

`CN1CCN2c3ccccc3Cc3ccccc3C2C1` (stereo not drawn) returned a normalized intracellular growth (time point: T3 (3 h)) of 1.03 ± 0.017 and a normalized intracellular growth (time point: Tfinal (~6 h)) of 0.916 ± 0.039.

Consider `CCC(C)(C)C(=O)O[C@H]1C[C@@H](C)C=C2C=C[C@H](C)[C@H](CC[C@@H]3C[C@@H](O)CC(=O)O3)[C@H]21`, for which the normalized intracellular growth was 1.05 ± 0.076 (time point: T3 (3 h)) and 1.19 ± 0.1 (time point: Tfinal (~6 h)).

Regarding `C[C@@H]1CN(c2c(F)c(F)c3c(=O)c(C(=O)O)cn(C4CC4)c3c2F)C[C@H](C)N1`, the normalized intracellular growth amounted to 0.986 ± 0.025 (time point: T3 (3 h)) and 0.0257 ± 0.0074 (time point: Tfinal (~6 h)).

The compound `CCOC(=O)CC(=O)N1CCSC1COc1ccccc1OC` (stereo not drawn) returned a normalized intracellular growth (time point: T3 (3 h)) of 1.11 ± 0.046 and a normalized intracellular growth (time point: Tfinal (~6 h)) of 1.08 ± 0.093.

For `O=[N+]([O-])c1ccc(O)c2ncccc12`, the normalized intracellular growth is 1.04 ± 0.11 (time point: T3 (3 h)) and 1.133 ± 0.011 (time point: Tfinal (~6 h)).

On to `CC(O)(CC(=O)O)CC(=O)O`, for which the normalized intracellular growth turned out to be 0.971 ± 0.034 (time point: T3 (3 h)) and 1.02 ± 0.061 (time point: Tfinal (~6 h)).

On to `CCCc1nn(C)c2c(=O)[nH]c(-c3cc(S(=O)(=O)N4CCN(C)CC4)ccc3OCC)nc12`, for which the normalized intracellular growth by setting is: (time point: T3 (3 h)) 0.968 ± 0.14; (time point: Tfinal (~6 h)) 1.21 ± 0.12.

For `CCCNC(C)(C)COC(=O)c1ccccc1`, the normalized intracellular growth amounted to 0.828 ± 0.083 (time point: T3 (3 h)) and 0.1174 ± 0.0011 (time point: Tfinal (~6 h)).

Consider `CCC1(C)CC(=O)NC1=O` (stereo not drawn), for which the normalized intracellular growth is 1.02 ± 0.052 (time point: T3 (3 h)) and 1.08 ± 0.11 (time point: Tfinal (~6 h)).

As to `CC(=O)Nc1ccc(OC(C)=O)cc1`, the normalized intracellular growth (time point: T3 (3 h)) amounted to 0.987 ± 0.072 and the normalized intracellular growth (time point: Tfinal (~6 h)) amounted to 1.16 ± 0.066.

Take `NC1CCN(c2c(F)cc3c(=O)c(C(=O)O)cn(C4CC4)c3c2Cl)C1` (stereo not drawn): the normalized intracellular growth (time point: T3 (3 h)) was 1.49 ± 0.071 and the normalized intracellular growth (time point: Tfinal (~6 h)) stood at 0.00632 ± 0.00035.

For the origin of these results see the supplement of paper PMC6331611.
